The target of assay [1] is human galectin-3 from pcDNA3.1-Gal-3 (human) (UniProt P17931). Put plainly: co-IP; CHO-K1 cells co-transfected with pcEXV-HA-EngFL and pcDNA3.1-Gal-3; lysis in 1% NP-40, 150 mM NaCl, 50 mM Tris pH 7.4; IP with anti-endoglin or anti-galectin-3 on protein G magnetic beads overnight at 4 °C; Western blot. For orientation: In western blotting, separated proteins are transferred to a membrane and probed.

The chains behind the UniProt entries cited, without tags or fusion partners.
UniProt P17931: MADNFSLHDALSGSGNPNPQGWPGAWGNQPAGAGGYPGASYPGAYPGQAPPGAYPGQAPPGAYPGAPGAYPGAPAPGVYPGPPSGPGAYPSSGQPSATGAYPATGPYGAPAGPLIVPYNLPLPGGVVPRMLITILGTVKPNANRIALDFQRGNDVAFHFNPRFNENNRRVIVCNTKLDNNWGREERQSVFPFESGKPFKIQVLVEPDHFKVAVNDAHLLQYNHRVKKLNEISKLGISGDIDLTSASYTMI
UniProt P19474: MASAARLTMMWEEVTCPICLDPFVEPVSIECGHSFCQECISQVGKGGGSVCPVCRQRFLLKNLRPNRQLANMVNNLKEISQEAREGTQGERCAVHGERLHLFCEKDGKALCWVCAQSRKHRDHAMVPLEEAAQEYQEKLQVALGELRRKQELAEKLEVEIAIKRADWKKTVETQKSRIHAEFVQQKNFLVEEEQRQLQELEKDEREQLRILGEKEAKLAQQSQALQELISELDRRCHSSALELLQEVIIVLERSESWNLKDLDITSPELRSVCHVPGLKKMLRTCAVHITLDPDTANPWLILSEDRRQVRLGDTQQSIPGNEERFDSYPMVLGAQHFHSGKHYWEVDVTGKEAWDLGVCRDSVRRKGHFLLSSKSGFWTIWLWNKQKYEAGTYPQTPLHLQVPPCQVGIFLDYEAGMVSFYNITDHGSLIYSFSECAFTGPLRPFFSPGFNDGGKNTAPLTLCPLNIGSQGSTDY

For assay [2], the target named is human TRIM21 from pcDNA3.1-HA-hTRIM21 (human) (UniProt P19474). The assay is described as follows: co-IP; CHO-K1 cells co-transfected with pcDNA3.1-HA-hTRIM21 and pDisplay-HA-endoglin constructs (FL, EC, TMEC); IP with anti-TRIM21 or anti-endoglin on protein G magnetic beads; Western blot.

These are yes or no findings as the source states them, for the method shown. In cells and extracts the contact can be indirect. Some binding calls cover weakened binding; strength is not graded here. Sequences can lack the tags named with a protein.

B1: human endoglin, full-length, from pcEXV-HA-EngFL (receptor, UniProt P17813 26-658)
chain: ETVHCDLQPVGPERGEVTYTTSQVSKGCVAQAPNAILEVHVLFLEFPTGPSQLELTLQASKQNGTWPREVLLVLSVNSSVFLHLQALGIPLHLAYNSSLVTFQEPPGVNTTELPSFPKTQILEWAAERGPITSAAELNDPQSILLRLGQAQGSLSFCMLEASQDMGRTLEWRPRTPALVRGCHLEGVAGHKEAHILRVLPGHSAGPRTVTVKVELSCAPGDLDAVLILQGPPYVSWLIDANHNMQIWTTGEYSFKIFPEKNIRGFKLPDTPQGLLGEARMLNASIVASFVELPLASIVSLHASSCGGRLQTSPAPIQTTPPKDTCSPELLMSLIQTKCADDAMTLVLKKELVAHLKCTITGLTFWDPSCEAEDRGDKFVLRSAYSSCGMQVSASMISNEAVVNILSSSSPQRKKVHCLNMDSLSFQLGLYLSPHFLQASNTIEPGQQSFVQVRVSPSVSEFLLQLDSCHLDLGPEGGTVELIQGRAAKGNCVSLLSPSPEGDPRFSFLLHFYTVPIPKTGTLSCTVALRPKTGSQDQEVHRTVFMRLNIISPDLSGCTSKGLVLPAVLGITFGAFLIGALLTAALWYIYSHTRSPSKREPVVAVAAPASSESSSTNHSIGSTQSTPCSTSSMA
Consider B1, for which the binding result in assay [1] was “binds”.

B2: human endoglin extracellular region from pDisplay-HA-EngEC (domain or fragment, UniProt P17813 26-586)
chain: ETVHCDLQPVGPERGEVTYTTSQVSKGCVAQAPNAILEVHVLFLEFPTGPSQLELTLQASKQNGTWPREVLLVLSVNSSVFLHLQALGIPLHLAYNSSLVTFQEPPGVNTTELPSFPKTQILEWAAERGPITSAAELNDPQSILLRLGQAQGSLSFCMLEASQDMGRTLEWRPRTPALVRGCHLEGVAGHKEAHILRVLPGHSAGPRTVTVKVELSCAPGDLDAVLILQGPPYVSWLIDANHNMQIWTTGEYSFKIFPEKNIRGFKLPDTPQGLLGEARMLNASIVASFVELPLASIVSLHASSCGGRLQTSPAPIQTTPPKDTCSPELLMSLIQTKCADDAMTLVLKKELVAHLKCTITGLTFWDPSCEAEDRGDKFVLRSAYSSCGMQVSASMISNEAVVNILSSSSPQRKKVHCLNMDSLSFQLGLYLSPHFLQASNTIEPGQQSFVQVRVSPSVSEFLLQLDSCHLDLGPEGGTVELIQGRAAKGNCVSLLSPSPEGDPRFSFLLHFYTVPIPKTGTLSCTVALRPKTGSQDQEVHRTVFMRLNIISPDLSGCTSKG
In the case of B2, the binding result in assay [2] is “binds”.

Source of the values: paper PMC6769930.
